Results are given in words; binding and its absence hold for the method and conditions named. In cells and extracts the contact can be indirect. Some results given as binding are weak or reduced against the parent protein; the word gives no strength.
Target: c‐Myc (human (endogenous in ARP1 and KMS28PE)), P01106
Assay: co-IP; Co-IP in ARP1 and KMS28PE MM cell lines; bait, antibodies and buffers not told
Conditions: remark: other sources report otherwise

binding: binds
B1: Mtbp, Q96DY7 1-904 (protein)
chain: MDRYLLLVIWGEGKFPSAASREAEHGPEVSSGEGTENQPDFTAANVYHLLKRSISASINPEDSTFPACSVGGIPGSKKWFFAVQAIYGFYQFCSSDWQEIHFDTEKDKIEDVLQTNIEECLGAVECFEEEDSNSRESLSLADLYEEAAENLHQLSDKLPAPGRAMVDIILLLSDKDPPKLKDYLPTVGALKHLREWYSAKITIAGNHCEINCQKIAEYLSANVVSLEDLRNVIDSKELWRGKIQIWERKFGFEISFPEFCLKGVTLKNFSTSNLNTDFLAKKIIPSKDKNILPKVFHYYGPALEFVQMIKLSDLPSCYMSDIEFELGLTNSTKQNSVLLLEQISSLCSKVGALFVLPCTISNILIPPPNQLSSRKWKEYIAKKPKTISVPDVEVKGECSSYYLLLQGNGNRRCKATLIHSANQINGSFALNLIHGKMKTKTEEAKLSFPFDLLSLPHFSGEQIVQREKQLANVQVLALEECLKRRKLAKQPETVSVAELKSLLVLTRKHFLDYFDAVIPKMILRKMDKIKTFNILNDFSPVEPNSSSLMETNPLEWPERHVLQNLETFEKTKQKMRTGSLPHSSEQLLGHKEGPRDSITLLDAKELLKYFTSDGLPIGDLQPLPIQKGEKTFVLTPELSPGKLQVLPFEKASVCHYHGIEYCLDDRKALERDGGFSELQSRLIRYETQTTCTRESFPVPTVLSPLPSPVVSSDPGSVPDGEVLQNELRTEVSRLKRRSKDLNCLYPRKRLVKSESSESLLSQTTGNSNHYHHHVTSRKPQTERSLPVTCPLVPIPSCETPKLATKTSSGQKSMHESKTSRQIKESRSQKHTRILKEVVTETLKKHSITETHECFTACSQRLFEISKFYLKDLKTSRGLFEEMKKTANNNAVQVIDWVLEKTSKK
